Data as given in article PMC10322693.
These are yes or no findings as the source states them, for the method shown. Binding seen in cells or lysates may run through a third protein. Some entries that bind do so weakly or less than the wild type. Where a sequence is shown, tags or fusion partners need not be part of it.

Chains of the proteins cited; added tags and fusions are not shown.
UniProt Q9DBL9: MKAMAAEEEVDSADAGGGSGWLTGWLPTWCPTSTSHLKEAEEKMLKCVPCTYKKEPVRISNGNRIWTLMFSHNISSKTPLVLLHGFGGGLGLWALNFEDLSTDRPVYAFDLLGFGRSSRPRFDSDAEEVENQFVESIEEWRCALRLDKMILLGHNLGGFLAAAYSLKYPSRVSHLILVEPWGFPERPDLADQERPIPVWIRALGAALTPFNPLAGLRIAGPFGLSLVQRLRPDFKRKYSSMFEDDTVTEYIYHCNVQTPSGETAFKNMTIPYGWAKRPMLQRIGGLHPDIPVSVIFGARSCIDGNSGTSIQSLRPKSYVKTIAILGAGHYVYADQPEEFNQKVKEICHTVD

T1: purified His-tagged CGI58 (human comparative gene identification-58) (human) (UniProt Q8WTS1)
T1 sequence: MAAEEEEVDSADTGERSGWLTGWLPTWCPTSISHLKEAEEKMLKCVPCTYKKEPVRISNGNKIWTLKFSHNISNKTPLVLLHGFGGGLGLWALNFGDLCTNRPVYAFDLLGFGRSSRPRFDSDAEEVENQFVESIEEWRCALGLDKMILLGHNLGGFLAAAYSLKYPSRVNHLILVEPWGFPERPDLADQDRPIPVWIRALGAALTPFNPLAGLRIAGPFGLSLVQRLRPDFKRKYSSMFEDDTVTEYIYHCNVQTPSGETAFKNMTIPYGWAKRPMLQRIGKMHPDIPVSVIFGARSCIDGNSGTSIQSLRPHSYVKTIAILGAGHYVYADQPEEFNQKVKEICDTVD


Assays:
[1] = target: T1, purified His-tagged CGI58 (human comparative gene identification-58) (human); experiment: co-IP; 12 μg purified His-CGI58 mixed with precleared mouse placenta lysate and 10 μg anti-His antibody or mouse IgG (control), overnight at 4°C, Protein G Dynabeads, blot for His-CGI58 and PNPLA9; only the target purified
[2] = target: His-CGI58 (mouse), overexpressed in HEK293T cells (mouse) (UniProt Q9DBL9); experiment: co-IP; HEK293T cells coexpressing FLAG-PNPLA9 and His-CGI58; lysate in 100 mM NaCl, 50 mM Tris-HCl pH 7.2, 1% Triton X-100, 2 mM β-mercaptoethanol; IP with anti-His overnight at 4°C, WB with anti-FLAG

binding [1]	binding [2]	Binder
binds		endogenous PNPLA9 of mouse placenta (protein, UniProt P97819 1-807) MQFFGRLVNTLSSVTNLFSNPFRVKEVSLTDYVSSERVREEGQLILLQNVSNRTWDCVLVSPRNPQSGFRLFQLESEADALVNFQQFSSQLPPFYESSVQVLHVEVLQHLTDLIRNHPSWTVTHLAVELGIRECFHHSRIISCANSTENEEGCTPLHLACRKGDSEILVELVQYCHAQMDVTDNKGETAFHYAVQGDNPQVLQLLGKNASAGLNQVNNQGLTPLHLACKMGKQEMVRVLLLCNARCNIMGPGGFPIHTAMKFSQKGCAEMIISMDSNQIHSKDPRYGASPLHWAKNAEMARMLLKRGCDVDSTSSSGNTALHVAVMRNRFDCVMVLLTYGANAGARGEHGNTPLHLAMSKDNMEMVKALIVFGAEVDTPNDFGETPALIASKISKLITRKALLTLLKTVGADHHFPIIQGVSTEQGSAAATHPLFSLDRTQPPAISLNNLELQDLMPISRARKPAFILSSMRDEKRSHDHLLCLDGGGVKGLVIIQLLIAIEKASGVATKDLFDWVAGTSTGGILALAILHSKSMAYMRGVYFRMKDEVFRGSRPYESGPLEEFLKREFGEHTKMTDVKKPKVMLTGTLSDRQPAELHLFRNYDAPEAVREPRCNQNINLKPPTQPADQLVWRAARSSGAAPTYFRPNGRFLDGGLLANNPTLDAMTEIHEYNQDMIRKGQGNKVKKLSIVVSLGTGKSPQVPVTCVDVFRPSNPWELAKTVFGAKELGKMVVDCCTDPDGRAVDRARAWCEMVGIQYFRLNPQLGSDIMLDEVSDAVLVNALWETEVYIYEHREEFQKLVQLLLSP
	binds	FLAG-PNPLA9 (mouse), overexpressed in HEK293T cells (protein, UniProt P97819 1-807) MQFFGRLVNTLSSVTNLFSNPFRVKEVSLTDYVSSERVREEGQLILLQNVSNRTWDCVLVSPRNPQSGFRLFQLESEADALVNFQQFSSQLPPFYESSVQVLHVEVLQHLTDLIRNHPSWTVTHLAVELGIRECFHHSRIISCANSTENEEGCTPLHLACRKGDSEILVELVQYCHAQMDVTDNKGETAFHYAVQGDNPQVLQLLGKNASAGLNQVNNQGLTPLHLACKMGKQEMVRVLLLCNARCNIMGPGGFPIHTAMKFSQKGCAEMIISMDSNQIHSKDPRYGASPLHWAKNAEMARMLLKRGCDVDSTSSSGNTALHVAVMRNRFDCVMVLLTYGANAGARGEHGNTPLHLAMSKDNMEMVKALIVFGAEVDTPNDFGETPALIASKISKLITRKALLTLLKTVGADHHFPIIQGVSTEQGSAAATHPLFSLDRTQPPAISLNNLELQDLMPISRARKPAFILSSMRDEKRSHDHLLCLDGGGVKGLVIIQLLIAIEKASGVATKDLFDWVAGTSTGGILALAILHSKSMAYMRGVYFRMKDEVFRGSRPYESGPLEEFLKREFGEHTKMTDVKKPKVMLTGTLSDRQPAELHLFRNYDAPEAVREPRCNQNINLKPPTQPADQLVWRAARSSGAAPTYFRPNGRFLDGGLLANNPTLDAMTEIHEYNQDMIRKGQGNKVKKLSIVVSLGTGKSPQVPVTCVDVFRPSNPWELAKTVFGAKELGKMVVDCCTDPDGRAVDRARAWCEMVGIQYFRLNPQLGSDIMLDEVSDAVLVNALWETEVYIYEHREEFQKLVQLLLSP
